Results are given in words; binding and its absence hold for the method and conditions named. Binding can be weak; no strength is given. Sequences can lack the tags named with a protein.
Biological target: T1, GST-TRAF2 (UniProt Q12933)
T1 sequence: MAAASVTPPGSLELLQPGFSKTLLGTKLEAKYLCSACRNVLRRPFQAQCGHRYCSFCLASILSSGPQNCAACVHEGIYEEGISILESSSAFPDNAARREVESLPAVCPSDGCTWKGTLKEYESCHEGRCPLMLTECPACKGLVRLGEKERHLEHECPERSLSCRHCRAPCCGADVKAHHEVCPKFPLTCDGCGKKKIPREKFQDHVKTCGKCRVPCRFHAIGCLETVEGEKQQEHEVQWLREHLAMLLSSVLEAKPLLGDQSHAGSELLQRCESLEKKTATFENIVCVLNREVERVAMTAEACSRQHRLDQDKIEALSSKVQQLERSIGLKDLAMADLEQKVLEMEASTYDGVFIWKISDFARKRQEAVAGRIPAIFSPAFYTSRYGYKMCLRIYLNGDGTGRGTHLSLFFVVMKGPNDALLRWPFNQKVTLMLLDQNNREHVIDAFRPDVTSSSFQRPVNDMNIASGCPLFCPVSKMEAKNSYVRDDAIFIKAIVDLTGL
Experiment: pull-down; in vitro binding: 5 µg GST-TRAF2 immobilised on glutathione-agarose beads, 25 mM HEPES pH7.5, 6 mM NaCl, 0.2% NP-40, 4 °C; same amount of his-CD47 or his-CD47/∆C added; Western blot; both purified

By UniProt entry, the sequences of proteins in these tests, tags left out. Where a name states a change or a piece, a line headed by the entry shows the natural chain unless it says otherwise.
UniProt Q08722: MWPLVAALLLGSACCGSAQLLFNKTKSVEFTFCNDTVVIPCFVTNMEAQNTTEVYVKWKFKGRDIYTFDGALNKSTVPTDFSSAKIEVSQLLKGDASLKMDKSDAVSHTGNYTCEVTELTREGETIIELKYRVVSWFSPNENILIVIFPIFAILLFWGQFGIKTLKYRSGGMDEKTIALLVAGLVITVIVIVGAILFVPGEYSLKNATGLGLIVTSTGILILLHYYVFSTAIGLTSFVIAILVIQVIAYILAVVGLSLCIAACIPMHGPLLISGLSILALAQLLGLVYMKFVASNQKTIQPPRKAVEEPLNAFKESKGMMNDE

binding: binds
Substance: his-CD47 (pET-28a-CD47) (from UniProt Q08722)

Reference: PMC11792004
